Reference: US10989719B2, “Methods for treating spinocerebellar ataxia type I using RPA1” (National University Corporation Tokyo Medical and Dental …, priority 2013, dated 2021)
These are yes or no findings as the source states them, for the method shown. In cells and extracts the contact can be indirect. Some binding calls cover weakened binding; strength is not graded here.

Protein sequences, listed by entry. Tags and fused reporters are not part of them.
UniProt Q8VEE4: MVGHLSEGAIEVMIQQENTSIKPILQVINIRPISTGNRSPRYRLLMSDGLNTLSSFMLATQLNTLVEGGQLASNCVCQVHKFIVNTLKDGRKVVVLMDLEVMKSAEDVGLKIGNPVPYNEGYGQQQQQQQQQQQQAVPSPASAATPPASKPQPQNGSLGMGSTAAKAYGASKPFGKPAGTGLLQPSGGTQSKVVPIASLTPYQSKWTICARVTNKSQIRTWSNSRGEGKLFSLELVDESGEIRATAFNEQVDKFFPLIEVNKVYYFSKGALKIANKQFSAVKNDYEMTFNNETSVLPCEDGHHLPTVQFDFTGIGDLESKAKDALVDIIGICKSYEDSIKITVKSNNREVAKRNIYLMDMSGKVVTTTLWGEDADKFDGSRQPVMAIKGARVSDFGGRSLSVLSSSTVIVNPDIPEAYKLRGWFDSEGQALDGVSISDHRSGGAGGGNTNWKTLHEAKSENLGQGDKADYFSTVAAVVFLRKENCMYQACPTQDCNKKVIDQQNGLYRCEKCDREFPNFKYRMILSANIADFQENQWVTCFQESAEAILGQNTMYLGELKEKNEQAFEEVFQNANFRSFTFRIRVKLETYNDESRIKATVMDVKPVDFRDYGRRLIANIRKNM

Molecular target: endogenous RPA1 (mouse brain) (mouse) (UniProt Q8VEE4)
Assay: co-immunoprecipitation from mouse brain homogenate (anti-RPA1 H-7 or anti-Atxn1 11NQ), Western blot

B1: wild-type ATXN1 (mouse brain, non-transgenic littermate) (protein, UniProt P54254 1-791, looked up)
chain: MKSNQERSNECLPPKKREIPATSRPSEEKATALPSDNHCVEGVAWLPSTPGIRGHGGGRHGSAGTSGEHGLQGMGLHKALSAGLDYSPPSAPRSVPTANTLPTVYPPPQSGTPVSPVQYAHLSHTFQFIGSSQYSGPYAGFIPSQLISPSGNPVTSAVASAAGATTPSQRSQLEAYSTLLANMGSLSQAPGHKVEPPPQQHLSRAAGLVNPGSPPPPTQQNQYIHISSSPQSSGRATSPPPIPVHLHPHQTMIPHTLTLGPSSQVVVQYSDAGGHFVPRESTKKAESSRLQQAMQAKEVLNGEMEKSRRYGASSSVELSLGKASSKSVPHPYESRHVVVHPSPADYSSRDTSGVRGSVMVLPNSSTPSADLEAQQTTHREASPSTLNDKSGLHLGKPGHRSYALSPHTVIQTTHSASEPLPVGLPATAFYAGTQPPVIGYLSGQQQAITYAGGLPQHLVIPGNQPLLIPVGSPDMDTPGAASAIVTSSPQFAAVPHTFVTTALPKSENFNPEALVTQAAYPAMVQAQIHLPVVQSVASPTTASPTLPPYFMKGSIIQLANGELKKVEDLKTEDFIQSAEISNDLKIDSSTVERIEESHSPGVAVIQFAVGEHRAQVSVEVLVEYPFFVFGQGWSSCCPERTSQLFDLPCSKLSVGDVCISLTLKNLKNGSVKKGQPVDPASVLLKQAKTDSLAGSRHRYAEQENGINQGSAQVLSENGELKFPEKIGLPAAPFLSKIEPSKPTATRKRRWSAPETRKLEKSEDEPPLTLPKPSLIPQEVKICIEGRSNVGK
- binding: binds
